From paper doi:10.1101/2023.09.18.558326
Results are given in words; binding and its absence hold for the method and conditions named. Binding seen in cells or lysates may run through a third protein. Some binding calls cover weakened binding; strength is not graded here. Sequences can lack the tags named with a protein.

Chains of the proteins cited; added tags and fusions are not shown.
UniProt Q94AH6: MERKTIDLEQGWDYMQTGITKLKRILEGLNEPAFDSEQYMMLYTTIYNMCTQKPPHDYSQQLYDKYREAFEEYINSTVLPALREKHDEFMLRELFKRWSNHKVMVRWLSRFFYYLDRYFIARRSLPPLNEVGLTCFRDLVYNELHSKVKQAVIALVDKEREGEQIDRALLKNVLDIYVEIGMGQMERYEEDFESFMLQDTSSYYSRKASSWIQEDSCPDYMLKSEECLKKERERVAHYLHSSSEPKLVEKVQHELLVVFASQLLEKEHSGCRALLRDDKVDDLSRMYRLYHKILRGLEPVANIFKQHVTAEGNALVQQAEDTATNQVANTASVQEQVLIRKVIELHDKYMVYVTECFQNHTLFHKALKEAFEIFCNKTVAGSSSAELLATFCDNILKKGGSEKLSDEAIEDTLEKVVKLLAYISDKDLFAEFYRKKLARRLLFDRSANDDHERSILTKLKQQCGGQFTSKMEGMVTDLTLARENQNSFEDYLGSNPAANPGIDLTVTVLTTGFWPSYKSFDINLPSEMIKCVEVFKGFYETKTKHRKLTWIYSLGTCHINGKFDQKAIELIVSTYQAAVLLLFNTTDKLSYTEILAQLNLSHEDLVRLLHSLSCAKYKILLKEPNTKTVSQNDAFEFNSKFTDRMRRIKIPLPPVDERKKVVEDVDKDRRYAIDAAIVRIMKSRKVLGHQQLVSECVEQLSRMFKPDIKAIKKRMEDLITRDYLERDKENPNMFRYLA

Target: T1, Flag-CFH1 (CLOCK-REGULATED F-BOX WITH A LONG HYPOCOTYL 1, full length) (Arabidopsis) (UniProt Q8RY82)
T1 sequence: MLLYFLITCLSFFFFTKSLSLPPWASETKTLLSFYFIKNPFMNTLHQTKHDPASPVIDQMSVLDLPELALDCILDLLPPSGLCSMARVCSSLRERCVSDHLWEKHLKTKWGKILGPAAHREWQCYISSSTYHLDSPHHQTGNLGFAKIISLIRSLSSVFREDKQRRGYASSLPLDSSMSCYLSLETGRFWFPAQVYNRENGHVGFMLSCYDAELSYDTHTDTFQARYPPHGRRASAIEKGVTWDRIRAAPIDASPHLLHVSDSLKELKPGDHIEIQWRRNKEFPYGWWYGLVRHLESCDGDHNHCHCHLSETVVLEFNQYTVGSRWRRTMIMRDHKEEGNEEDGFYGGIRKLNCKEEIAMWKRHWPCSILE
Assay: co-IP

binding: binds
Substance: Cullin-1 (from UniProt Q94AH6 1-738)
